Results are given in words; binding and its absence hold for the method and conditions named. In cells and extracts the contact can be indirect. Some entries that bind do so weakly or less than the wild type.
Molecular target: GFP-tagged human Nup98ΔCTD (amino acids 1–504) (human) (UniProt P52948)
Assay: co-IP; repeat of the GFP-Trap co-IP of GFP-Nup98ΔCTD from RAW 264.7 lysate; Western blot with antibodies against Wdr82, GFP, Rae1 and GAPDH; GFP alone as control

The chains behind the UniProt entries cited, without tags or fusion partners. Where a name states a change or a piece, a line headed by the entry shows the natural chain unless it says otherwise. Residues count along the entry.
UniProt P52948, residues 1-504: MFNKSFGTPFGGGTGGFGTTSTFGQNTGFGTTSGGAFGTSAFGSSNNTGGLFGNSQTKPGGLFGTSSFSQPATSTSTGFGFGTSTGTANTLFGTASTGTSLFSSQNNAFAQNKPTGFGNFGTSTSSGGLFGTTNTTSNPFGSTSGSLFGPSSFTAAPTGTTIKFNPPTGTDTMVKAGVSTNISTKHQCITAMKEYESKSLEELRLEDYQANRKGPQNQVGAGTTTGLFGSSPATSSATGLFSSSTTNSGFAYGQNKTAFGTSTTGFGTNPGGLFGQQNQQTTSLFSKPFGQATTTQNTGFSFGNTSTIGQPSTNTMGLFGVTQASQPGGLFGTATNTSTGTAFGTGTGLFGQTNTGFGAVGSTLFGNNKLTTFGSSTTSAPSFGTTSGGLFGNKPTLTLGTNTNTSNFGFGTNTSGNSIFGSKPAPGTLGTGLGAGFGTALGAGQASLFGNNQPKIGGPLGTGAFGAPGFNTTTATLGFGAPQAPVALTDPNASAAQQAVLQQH
UniProt Q8BFQ4: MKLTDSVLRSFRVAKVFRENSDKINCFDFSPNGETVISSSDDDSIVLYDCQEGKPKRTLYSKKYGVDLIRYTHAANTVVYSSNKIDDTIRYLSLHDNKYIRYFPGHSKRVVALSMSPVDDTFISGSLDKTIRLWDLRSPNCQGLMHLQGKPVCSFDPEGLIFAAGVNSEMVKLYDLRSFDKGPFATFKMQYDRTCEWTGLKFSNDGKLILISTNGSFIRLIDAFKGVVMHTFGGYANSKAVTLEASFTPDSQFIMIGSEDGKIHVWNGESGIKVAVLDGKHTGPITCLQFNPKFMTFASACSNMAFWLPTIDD

binding | Molecule
binds | Wdr82 (from UniProt Q8BFQ4 1-313)
binds | Rae1 (protein, UniProt Q8C570 1-368) MSLFGSTSGFGTGGTSMFGSTTTDNHNPMKDIEVTSSPDDSIGCLSFSPPTLPGNFLIAGSWANDVRCWEVQDSGQTIPKAQQMHTGPVLDVCWSDDGSKVFTASCDKTAKMWDLNSNQAIQIAQHDAPVKTIHWIKAPNYSCVMTGSWDKTLKFWDTRSSNPMMVLQLPERCYCADVIYPMAVVATAERGLIVYQLENQPSEFRRIESPLKHQHRCVAIFKDKQNKPTGFALGSIEGRVAIHYINPPNPAKDNFTFKCHRSNGTNTSAPQDIYAVNGIAFHPVHGTLATVGSDGRFSFWDKDARTKLKTSEQLDQPIAACCFNHNGNIFAYASSYDWSKGHEFYNPQKKNYIFLRNAAEELKPRNKK

From article PMC5769767
